# Laboratory results from the odorant receptor screen of Mainland et al. (2015).
# Chains of the proteins cited; added tags and fusions are not shown. A line that says so, or that is headed by a name, gives the form on record, which may keep a tag or linker.
# OR11H13, as listed by the source: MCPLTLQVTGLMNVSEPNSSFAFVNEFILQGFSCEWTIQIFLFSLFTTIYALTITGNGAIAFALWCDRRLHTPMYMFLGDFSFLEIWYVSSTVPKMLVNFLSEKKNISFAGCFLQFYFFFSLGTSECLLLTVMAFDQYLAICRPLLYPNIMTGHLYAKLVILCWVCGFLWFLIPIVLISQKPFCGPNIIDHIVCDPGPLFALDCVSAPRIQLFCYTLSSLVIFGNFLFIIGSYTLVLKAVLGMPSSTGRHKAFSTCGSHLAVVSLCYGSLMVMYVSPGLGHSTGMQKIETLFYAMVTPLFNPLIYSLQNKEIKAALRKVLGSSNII
# Where “and” joins values, the source holds several entries; their conditions need not be identical. Equal values may be shown once. Some of the results follow. Each value is one well over the wells without odorant, computed here; the data are noisy.
# Assays:
# Experiment in all cases: odorant receptor activation (CRE luciferase / Renilla) (fold of no-odor wells); higher = more activation
# Settings in all cases: 100 µM
# OR11H13 clone 1435 = system: OR11H13 clone 1435
# OR11H4 clone 1263 = system: OR11H4 clone 1263
# OR11H4 clone 1423 = system: OR11H4 clone 1423
# OR11H6 clone 1275 = system: OR11H6 clone 1275
# [1] = system: OR11L1 G108S/F117L/A142T/R171P clone 1031
# [2] = system: OR12D2 V47F/L56P/S104F/F113L/L120R/V159I clone 1373
# OR12D2 clone 1075 = system: OR12D2 clone 1075
# OR12D3 clone 1071 = system: OR12D3 clone 1071
# OR13A1 clone 1107 = system: OR13A1 clone 1107
# OR13C2 clone 1717 = system: OR13C2 clone 1717
Compound,odorant receptor activation (OR11H13 clone 1435),odorant receptor activation (OR11H4 clone 1263),odorant receptor activation (OR11H4 clone 1423),odorant receptor activation (OR11H6 clone 1275),odorant receptor activation [1],odorant receptor activation [2],odorant receptor activation (OR12D2 clone 1075),odorant receptor activation (OR12D3 clone 1071),odorant receptor activation (OR13A1 clone 1107),odorant receptor activation (OR13C2 clone 1717)
CCC(C)=O [2-butanone],1.38,1.08,1.09,0.93,3.57,0.283,2.04,4.63,11.6,0.618
CCCCOC(C)=O [butyl acetate],0.174,0.796,0.138,0.791,1.07,0.203,1.3,1.11,1.19,0.611
CS [methanethiol],1.1,0.91,1.08,0.923,1.05,1.1,1.03,1.25,1.39,0.701
CCOc1cc(C=O)ccc1O [ethyl vanillin],1.3 and 1.19,1.5 and 1.06,0.971 and 1.31,–,1.11 and 1.02,0.949 and 1.34,0.755 and 0.898,1.04 and 1.05,1.11 and 1.25,0.762
